Results from US6673354B2, “Compositions and methods for treating papillomavirus-infected cells” (priority 1998, dated 2004).
These are yes or no findings as the source states them, for the method shown. For some assays here: Binding seen in cells or lysates may run through a third protein. Some binding calls cover weakened binding; strength is not graded here.

Sequences of proteins named here, by UniProt entry; tags and fusion partners are left off. Residues count along the entry.
UniProt P03114, residues 424-649: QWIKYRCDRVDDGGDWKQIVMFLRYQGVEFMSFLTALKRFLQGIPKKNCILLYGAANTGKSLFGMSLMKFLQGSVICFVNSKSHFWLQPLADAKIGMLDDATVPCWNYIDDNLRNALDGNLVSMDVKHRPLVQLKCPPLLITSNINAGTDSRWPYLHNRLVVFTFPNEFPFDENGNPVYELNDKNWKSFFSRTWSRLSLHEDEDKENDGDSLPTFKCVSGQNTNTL

Tests used:
[1] = target: EE-EIC (epitope tagged carboxy terminal domain of HPV16 E1) (human papillomavirus type 16) (UniProt P03114); test: inhibition of co-immunoprecipitation of E2 with the tagged E1 carboxyl terminal domain
[2] = target: EE-EIC (epitope tagged carboxy terminal domain of HPV16 E1) (human papillomavirus type 16) (UniProt P03114); test: in vitro E1-E2 competition binding assay with EE-EIC, 10-40 µM peptide, FIG. 14

## WKHMRLECAIYYKAR (also called 15-mer; wild-type peptide) [E2N-WP15 (peptide of HPV16 E2 residues 33-47)]
[1]
  binding: binds
[2]
  binding: binds
